Values quoted from earlier work as cited in paper PMC12436592 (Nature Communications, 2025).

Test system: P2X7R
Details: cited from earlier work

Compound	fold less effective against the rP2X7R than the hP2X7R	fold less potent at the mP2X7R than the hP2X7R	fold higher affinity for the rP2X7R than the hP2X7R
O=C1CSC(=O)N1C(CCc1ccncc1)COc1ccc(-c2cccc([N+](=O)[O-])c2)cc1 (stereo not drawn) [AZ11645373]	> 500 fold	~ 100 fold	
O=C(NCC1(N2CCN(c3ccccc3)CC2)CCOCC1)c1cccnc1Sc1ccccc1 [JNJ47965567]			~ 10 fold
